Laboratory results as given in publication PMC12491235.
Results are given in words; binding and its absence hold for the method and conditions named. In cells and extracts the contact can be indirect. Some entries that bind do so weakly or less than the wild type.

Protein sequences, listed by entry. Tags and fused reporters are not part of them.
UniProt Q16665: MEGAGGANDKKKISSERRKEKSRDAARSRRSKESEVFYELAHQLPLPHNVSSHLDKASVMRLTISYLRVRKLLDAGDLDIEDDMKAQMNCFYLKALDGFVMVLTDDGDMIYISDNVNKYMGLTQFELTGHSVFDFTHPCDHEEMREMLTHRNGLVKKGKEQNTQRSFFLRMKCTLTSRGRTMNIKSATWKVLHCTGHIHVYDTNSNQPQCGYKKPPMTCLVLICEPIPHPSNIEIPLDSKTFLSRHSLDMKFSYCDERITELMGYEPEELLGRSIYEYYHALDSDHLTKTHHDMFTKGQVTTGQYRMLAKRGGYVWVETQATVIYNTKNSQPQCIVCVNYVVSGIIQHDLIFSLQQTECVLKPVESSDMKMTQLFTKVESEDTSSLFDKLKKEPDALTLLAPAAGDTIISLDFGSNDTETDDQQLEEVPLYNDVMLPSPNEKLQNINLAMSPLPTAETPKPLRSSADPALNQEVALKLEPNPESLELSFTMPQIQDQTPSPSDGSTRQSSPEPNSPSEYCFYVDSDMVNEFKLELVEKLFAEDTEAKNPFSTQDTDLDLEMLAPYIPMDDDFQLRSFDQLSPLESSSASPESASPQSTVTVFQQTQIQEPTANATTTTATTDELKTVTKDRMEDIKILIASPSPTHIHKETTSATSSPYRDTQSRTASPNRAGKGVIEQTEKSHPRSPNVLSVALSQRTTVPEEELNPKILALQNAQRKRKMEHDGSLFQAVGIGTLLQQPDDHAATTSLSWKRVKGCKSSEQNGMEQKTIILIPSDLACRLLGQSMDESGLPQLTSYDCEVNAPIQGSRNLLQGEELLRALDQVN
UniProt P11413: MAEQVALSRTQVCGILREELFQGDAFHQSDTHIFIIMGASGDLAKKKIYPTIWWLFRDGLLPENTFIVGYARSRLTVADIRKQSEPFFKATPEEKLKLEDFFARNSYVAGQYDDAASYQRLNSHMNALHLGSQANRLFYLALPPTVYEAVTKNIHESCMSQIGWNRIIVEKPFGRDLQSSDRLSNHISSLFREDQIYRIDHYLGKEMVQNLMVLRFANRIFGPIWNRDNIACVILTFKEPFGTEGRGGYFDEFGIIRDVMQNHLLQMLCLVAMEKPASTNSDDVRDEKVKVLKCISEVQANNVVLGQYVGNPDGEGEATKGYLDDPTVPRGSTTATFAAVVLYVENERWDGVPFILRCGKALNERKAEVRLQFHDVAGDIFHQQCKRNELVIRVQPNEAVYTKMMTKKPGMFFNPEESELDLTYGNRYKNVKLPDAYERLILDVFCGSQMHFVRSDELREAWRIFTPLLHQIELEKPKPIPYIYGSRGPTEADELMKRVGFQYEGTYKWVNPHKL

Biological target: HIF-1α (human (endogenous in HuH-7)) (UniProt Q16665)
Test: co-IP; endogenous proteins in HuH-7 cells under hypoxia for 24 hours; normal rabbit IgG as control

binding: binds
Substance: Glucose-6-phosphate dehydrogenase (from UniProt P11413 1-515)
